Data published in PMC10141581.
These are yes or no findings as the source states them, for the method shown. In cells and extracts the contact can be indirect.

Amino acid sequences for entries named in this document (tags omitted).
UniProt Q96SW2: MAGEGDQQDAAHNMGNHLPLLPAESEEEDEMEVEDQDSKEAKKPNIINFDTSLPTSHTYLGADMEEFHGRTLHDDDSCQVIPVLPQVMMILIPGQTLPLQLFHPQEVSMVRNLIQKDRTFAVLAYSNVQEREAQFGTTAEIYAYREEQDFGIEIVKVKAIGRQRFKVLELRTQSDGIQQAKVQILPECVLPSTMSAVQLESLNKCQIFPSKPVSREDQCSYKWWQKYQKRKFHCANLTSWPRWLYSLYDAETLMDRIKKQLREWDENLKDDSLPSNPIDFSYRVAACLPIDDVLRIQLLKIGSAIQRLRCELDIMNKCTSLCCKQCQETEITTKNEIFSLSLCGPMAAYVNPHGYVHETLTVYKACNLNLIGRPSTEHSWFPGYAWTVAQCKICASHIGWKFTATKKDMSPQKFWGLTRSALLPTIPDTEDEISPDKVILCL
UniProt P63104: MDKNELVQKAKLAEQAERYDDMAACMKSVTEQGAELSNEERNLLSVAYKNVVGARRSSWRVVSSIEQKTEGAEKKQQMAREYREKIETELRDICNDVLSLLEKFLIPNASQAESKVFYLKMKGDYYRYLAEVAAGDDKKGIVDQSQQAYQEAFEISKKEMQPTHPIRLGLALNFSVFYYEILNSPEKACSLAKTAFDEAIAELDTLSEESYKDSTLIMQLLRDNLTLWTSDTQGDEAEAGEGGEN

Target: FLAG-CRBN (human) (UniProt Q96SW2)
Experiment: co-IP; 20 μM purified Myc-14-3-3ζ added to lysate of HEK293T cells expressing FLAG-CRBN (Calyculin A, no phosphatase), 1 h; ANTI-FLAG M2 affinity gel; 50 mM Tris pH 7.5, 150 mM NaCl; Western blot with α-FLAG and α-myc; only the binder purified

binding: no binding (tested: 20 μM)
Substance: myc-14-3-3ζ WT (from UniProt P63104 1-245)
